Source: the supplement of paper PMC10849652
This is one part of the list.

Sequences of proteins named here, by UniProt entry; tags and fusion partners are left off. A change or cut given only in a name is not applied to a line headed by its entry.
UniProt Q8N5L8: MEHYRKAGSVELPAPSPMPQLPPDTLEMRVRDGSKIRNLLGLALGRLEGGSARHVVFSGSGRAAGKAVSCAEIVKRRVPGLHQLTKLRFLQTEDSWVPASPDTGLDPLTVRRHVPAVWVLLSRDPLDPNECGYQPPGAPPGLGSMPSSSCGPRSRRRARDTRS
UniProt Q8WWV3: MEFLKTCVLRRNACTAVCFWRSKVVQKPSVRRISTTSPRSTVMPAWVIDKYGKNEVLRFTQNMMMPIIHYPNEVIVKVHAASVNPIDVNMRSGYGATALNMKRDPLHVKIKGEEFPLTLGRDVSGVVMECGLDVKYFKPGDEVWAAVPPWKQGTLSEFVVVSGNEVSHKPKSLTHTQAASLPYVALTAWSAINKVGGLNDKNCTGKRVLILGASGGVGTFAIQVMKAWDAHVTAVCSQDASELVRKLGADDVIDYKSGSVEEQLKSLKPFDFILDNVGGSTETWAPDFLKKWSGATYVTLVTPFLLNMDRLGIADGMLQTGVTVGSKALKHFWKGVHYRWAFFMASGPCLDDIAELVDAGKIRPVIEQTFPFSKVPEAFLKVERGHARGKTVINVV
UniProt Q5VWQ0: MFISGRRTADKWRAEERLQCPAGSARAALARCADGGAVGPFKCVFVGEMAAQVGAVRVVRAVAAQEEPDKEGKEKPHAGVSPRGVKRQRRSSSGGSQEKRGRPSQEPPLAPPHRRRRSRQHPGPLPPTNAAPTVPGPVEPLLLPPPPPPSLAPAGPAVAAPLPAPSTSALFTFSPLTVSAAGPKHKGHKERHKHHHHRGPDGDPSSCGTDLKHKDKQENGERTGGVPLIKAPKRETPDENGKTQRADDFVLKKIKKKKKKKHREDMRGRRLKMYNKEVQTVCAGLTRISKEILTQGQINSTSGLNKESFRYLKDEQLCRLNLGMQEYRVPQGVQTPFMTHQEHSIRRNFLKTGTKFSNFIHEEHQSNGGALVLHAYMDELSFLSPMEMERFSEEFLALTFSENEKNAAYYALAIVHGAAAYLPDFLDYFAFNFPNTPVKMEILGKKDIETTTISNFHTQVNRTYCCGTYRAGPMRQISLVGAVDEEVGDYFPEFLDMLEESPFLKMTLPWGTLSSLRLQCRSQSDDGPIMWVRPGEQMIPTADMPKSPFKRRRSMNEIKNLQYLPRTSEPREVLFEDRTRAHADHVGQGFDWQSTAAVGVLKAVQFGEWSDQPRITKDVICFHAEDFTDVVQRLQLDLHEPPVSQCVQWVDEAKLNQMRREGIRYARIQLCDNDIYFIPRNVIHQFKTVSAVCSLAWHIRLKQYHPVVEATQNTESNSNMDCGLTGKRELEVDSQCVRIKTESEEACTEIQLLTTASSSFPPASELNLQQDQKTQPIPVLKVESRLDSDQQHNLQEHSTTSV
UniProt P23921: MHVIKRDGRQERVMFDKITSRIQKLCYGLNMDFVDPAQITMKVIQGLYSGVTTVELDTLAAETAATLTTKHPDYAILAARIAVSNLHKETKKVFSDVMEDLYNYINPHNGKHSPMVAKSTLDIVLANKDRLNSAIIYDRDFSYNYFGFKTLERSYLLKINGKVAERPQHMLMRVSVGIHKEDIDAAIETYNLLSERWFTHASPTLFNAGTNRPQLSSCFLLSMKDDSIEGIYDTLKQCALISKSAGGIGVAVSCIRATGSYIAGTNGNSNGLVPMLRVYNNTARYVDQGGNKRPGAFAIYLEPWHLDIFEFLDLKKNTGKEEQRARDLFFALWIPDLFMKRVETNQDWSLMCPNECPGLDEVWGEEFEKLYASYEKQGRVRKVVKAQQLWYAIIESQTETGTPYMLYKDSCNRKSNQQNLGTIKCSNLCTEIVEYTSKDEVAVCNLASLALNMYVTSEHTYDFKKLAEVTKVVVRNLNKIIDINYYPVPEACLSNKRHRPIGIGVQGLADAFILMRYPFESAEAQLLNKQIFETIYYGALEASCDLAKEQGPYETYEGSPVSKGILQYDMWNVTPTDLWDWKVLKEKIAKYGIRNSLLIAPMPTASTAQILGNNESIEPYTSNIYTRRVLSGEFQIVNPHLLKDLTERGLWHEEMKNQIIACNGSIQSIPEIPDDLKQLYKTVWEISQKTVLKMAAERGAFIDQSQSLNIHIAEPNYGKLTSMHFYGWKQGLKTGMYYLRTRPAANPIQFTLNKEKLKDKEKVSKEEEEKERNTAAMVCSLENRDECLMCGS
UniProt Q7LG56, whole entry, looked up: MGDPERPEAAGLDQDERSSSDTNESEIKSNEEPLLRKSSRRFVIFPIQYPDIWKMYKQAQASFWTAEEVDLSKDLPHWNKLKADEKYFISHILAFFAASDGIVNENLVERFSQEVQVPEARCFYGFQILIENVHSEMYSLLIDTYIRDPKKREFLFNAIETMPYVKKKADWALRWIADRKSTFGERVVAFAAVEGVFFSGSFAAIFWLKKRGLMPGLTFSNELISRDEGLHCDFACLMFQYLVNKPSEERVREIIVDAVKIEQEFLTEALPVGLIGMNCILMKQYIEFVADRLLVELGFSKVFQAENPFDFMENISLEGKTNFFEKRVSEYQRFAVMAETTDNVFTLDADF
UniProt Q8N488: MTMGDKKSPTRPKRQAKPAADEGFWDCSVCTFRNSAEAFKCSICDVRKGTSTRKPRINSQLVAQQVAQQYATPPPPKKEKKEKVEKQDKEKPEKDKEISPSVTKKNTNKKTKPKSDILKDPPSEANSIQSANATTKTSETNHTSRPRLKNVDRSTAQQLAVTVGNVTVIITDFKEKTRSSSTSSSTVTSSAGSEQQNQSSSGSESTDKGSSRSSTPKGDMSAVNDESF
UniProt Q9P2E9: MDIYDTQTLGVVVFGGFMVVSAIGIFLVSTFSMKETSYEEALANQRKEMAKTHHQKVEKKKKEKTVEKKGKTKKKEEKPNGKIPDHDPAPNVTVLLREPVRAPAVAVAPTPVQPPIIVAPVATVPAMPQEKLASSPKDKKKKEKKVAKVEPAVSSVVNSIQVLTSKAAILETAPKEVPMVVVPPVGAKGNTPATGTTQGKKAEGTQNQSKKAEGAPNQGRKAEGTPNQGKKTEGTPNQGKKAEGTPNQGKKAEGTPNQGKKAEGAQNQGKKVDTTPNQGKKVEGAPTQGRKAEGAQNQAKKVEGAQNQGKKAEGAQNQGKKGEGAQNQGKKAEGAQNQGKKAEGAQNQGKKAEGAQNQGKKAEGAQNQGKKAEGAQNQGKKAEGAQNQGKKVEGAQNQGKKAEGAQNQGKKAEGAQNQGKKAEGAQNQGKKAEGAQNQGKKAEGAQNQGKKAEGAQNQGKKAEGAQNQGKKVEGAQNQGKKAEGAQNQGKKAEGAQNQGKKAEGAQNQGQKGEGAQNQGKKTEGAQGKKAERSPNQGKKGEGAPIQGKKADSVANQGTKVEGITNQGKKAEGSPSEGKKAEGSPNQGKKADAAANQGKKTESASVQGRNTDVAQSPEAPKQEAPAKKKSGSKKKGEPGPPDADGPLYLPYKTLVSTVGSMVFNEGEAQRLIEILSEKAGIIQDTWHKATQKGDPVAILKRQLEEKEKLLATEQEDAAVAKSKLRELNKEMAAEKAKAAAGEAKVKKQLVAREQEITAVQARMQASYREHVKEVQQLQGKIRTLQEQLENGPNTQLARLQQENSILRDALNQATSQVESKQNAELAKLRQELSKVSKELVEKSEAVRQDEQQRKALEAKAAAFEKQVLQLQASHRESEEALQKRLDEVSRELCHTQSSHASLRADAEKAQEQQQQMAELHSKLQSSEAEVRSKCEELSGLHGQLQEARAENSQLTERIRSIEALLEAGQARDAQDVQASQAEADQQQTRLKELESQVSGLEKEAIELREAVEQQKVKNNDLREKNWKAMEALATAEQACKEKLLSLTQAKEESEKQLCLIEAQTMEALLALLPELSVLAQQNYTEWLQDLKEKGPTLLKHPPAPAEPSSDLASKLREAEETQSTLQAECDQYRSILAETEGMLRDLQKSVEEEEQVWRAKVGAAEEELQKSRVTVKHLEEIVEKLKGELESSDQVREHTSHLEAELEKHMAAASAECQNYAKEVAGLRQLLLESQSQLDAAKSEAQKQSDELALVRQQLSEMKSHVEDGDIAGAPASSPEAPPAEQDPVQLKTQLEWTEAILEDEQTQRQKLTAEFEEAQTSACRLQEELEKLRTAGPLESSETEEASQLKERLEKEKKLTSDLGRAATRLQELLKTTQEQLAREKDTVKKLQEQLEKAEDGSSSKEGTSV
UniProt Q7L099: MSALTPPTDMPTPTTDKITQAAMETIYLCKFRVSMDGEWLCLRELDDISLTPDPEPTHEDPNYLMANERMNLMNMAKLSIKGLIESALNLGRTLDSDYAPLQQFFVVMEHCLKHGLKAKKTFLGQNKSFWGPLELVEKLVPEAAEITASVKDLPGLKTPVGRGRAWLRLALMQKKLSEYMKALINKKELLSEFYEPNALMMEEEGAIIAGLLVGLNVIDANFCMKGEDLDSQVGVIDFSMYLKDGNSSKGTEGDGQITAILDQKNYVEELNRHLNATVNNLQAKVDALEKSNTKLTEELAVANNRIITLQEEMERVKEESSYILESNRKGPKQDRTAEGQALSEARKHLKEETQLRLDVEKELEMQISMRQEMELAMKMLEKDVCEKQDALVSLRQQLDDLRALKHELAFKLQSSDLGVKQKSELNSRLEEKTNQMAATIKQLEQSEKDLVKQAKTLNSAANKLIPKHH
UniProt P57060: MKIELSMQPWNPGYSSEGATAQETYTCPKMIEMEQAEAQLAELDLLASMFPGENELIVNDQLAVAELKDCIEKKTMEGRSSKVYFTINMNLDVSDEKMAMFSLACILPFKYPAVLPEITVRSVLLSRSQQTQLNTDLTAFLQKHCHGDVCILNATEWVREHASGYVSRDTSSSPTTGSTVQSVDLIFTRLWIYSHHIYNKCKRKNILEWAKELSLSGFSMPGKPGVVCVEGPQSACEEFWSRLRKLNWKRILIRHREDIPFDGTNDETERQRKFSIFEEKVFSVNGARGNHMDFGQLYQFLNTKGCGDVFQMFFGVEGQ
UniProt Q8IZ73: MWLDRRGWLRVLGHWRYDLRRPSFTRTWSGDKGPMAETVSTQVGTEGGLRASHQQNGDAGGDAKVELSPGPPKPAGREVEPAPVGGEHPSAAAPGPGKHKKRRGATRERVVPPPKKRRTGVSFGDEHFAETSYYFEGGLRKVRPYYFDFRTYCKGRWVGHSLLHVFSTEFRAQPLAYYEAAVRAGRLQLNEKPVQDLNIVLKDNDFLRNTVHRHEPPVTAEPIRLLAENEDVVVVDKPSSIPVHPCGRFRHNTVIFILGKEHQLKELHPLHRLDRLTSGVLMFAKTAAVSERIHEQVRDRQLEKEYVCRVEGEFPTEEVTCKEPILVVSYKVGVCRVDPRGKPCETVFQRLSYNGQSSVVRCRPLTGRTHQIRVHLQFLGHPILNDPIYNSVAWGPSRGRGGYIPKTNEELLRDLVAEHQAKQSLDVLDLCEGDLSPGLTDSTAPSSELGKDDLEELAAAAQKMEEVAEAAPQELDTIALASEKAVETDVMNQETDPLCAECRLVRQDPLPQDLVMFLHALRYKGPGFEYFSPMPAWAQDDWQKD
UniProt P31350, whole entry, looked up: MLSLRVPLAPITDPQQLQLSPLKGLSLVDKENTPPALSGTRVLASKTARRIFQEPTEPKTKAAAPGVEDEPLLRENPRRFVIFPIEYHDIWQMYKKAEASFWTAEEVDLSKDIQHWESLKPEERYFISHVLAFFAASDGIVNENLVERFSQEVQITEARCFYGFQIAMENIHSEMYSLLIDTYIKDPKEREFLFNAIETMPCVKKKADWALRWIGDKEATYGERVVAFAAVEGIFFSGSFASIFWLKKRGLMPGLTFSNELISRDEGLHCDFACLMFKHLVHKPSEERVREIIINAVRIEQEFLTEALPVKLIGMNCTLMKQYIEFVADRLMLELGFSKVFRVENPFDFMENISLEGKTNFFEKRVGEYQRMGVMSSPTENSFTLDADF
UniProt O43818: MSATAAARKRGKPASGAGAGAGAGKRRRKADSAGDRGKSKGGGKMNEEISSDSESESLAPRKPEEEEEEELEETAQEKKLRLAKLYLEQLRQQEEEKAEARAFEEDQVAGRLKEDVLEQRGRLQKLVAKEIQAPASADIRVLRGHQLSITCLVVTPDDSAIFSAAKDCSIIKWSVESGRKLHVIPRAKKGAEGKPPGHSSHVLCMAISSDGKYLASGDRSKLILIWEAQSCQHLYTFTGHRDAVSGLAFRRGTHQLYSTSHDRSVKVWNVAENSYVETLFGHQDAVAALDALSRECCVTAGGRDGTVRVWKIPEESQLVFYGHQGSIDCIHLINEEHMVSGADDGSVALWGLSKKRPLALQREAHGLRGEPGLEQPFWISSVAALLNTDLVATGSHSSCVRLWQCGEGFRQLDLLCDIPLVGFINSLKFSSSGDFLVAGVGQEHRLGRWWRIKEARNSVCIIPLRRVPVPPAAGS
UniProt Q9H446: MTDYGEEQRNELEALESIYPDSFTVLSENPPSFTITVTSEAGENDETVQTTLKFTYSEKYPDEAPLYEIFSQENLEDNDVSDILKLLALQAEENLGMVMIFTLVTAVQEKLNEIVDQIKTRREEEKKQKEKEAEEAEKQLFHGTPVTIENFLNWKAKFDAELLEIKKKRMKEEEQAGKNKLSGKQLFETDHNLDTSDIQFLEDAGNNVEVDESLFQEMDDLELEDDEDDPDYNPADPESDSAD

Assays:
Test in all cases: log2 fold change, soluble protein after heating vs DMSO (PISA); higher = thermal stabilisation; K562 lysate, 10 uM; active = over 0.2 and 3.5 SD of the protein, either way, in both replicates (recomputed)
[1] = compound: C1=CC=C(C=C1)[C@H](COC2=CC3=C(C=C2)NC(=O)N3)NC(=O)C4=CC=CN(C4=O)CC5=CC(=C(C=C5)F)F
Method in brief: (§1)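 Log-two fold change in thermal stability relative to solvent controls is reported from duplicates. For each sample, crude K562 extract from dounce-homogenised pellets in PBS pH 7.4 with 1 mM MgCl2, at 1 mg/mL protein, was treated with 10 μM compound for 30 min. Aliquots heated for 3 min across 48°C-58°C were pooled, brought to 0.5% NP-40 at 4°C and cleared at 21,000xg for 90 min. The supernatant was quantified by TMTpro 16plex LC-MS/MS with channel sums equalised.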

[2] = compound: CC1=C(SC2=C1C(=N[C@H](C3=NN=C(N32)C)CC(=O)N)C4=CC=C(C=C4)Cl)C
Method in brief: as §1

[3] = compound: CC1=C2C(=CC=C1)N=C(N(C2=O)C3=CC=CC=C3C)CN4C=NC5=C(N=CN=C54)N
Method in brief: as §1

[4] = compound: Cc1sc2c(c1C)C(c1ccc(Cl)cc1)=N[C@@H](CC(=O)OC(C)(C)C)c1nnc(C)n1-2
Method in brief: as §1

[5] = compound: c1ccc([C@@H]2C[C@H]2NC2CCNCC2)cc1
Method in brief: as §1

Measured: log2 fold change

RPP25L (UniProt Q8N5L8)
inactive: [1] 0.097 | [2] 0.002 | [3] 0.046 | [4] 0.088 | [5] -0.012

RTN4IP1 (UniProt Q8WWV3)
inactive: [1] 0.028 | [2] -0.005 | [3] 0.027 | [4] -0.119 | [5] 0.076

RSBN1 (UniProt Q5VWQ0)
inactive: [1] 0.081 | [2] -0.027 | [3] -0.043 | [4] 0.002 | [5] -0.022

RRM1 (UniProt P23921)
inactive: [1] 0.014 | [2] 0.028 | [3] 0.042 | [4] 0.028 | [5] 0.004

RPS10 (UniProt P46783)
inactive: [1] 0.053 | [2] -0.001 | [3] 0.039 | [4] 0.016 | [5] 0.001

RPS14 (UniProt P62263)
inactive: [1] 0.018 | [2] 0.003 | [3] 0.042 | [4] 0.003 | [5] -0.019

RPS19 (UniProt P39019)
inactive: [1] -0.024 | [2] 0.017 | [3] -0.037 | [4] 0.044 | [5] 0.026

RRM2B isoform 6 (UniProt Q7LG56)
inactive: [1] 0.054 | [2] -0.003 | [3] -0.02 | [4] -0.009 | [5] -0.04

RYBP (UniProt Q8N488)
inactive: [1] 0.119 | [2] -0.026 | [3] -0.023 | [4] -0.021 | [5] -0.133

RPS2 (UniProt P15880)
inactive: [1] 0.003 | [2] 0.025 | [3] -0.014 | [4] 0.028 | [5] 0.016

RRBP1 isoform 3 (UniProt Q9P2E9)
inactive: [1] 0.188 | [2] 0.005 | [3] 0.098 | [4] -0.026

RUFY3 isoform 3 (UniProt Q7L099)
inactive: [1] 0.007 | [2] -0.063 | [3] 0.013 | [4] -0.036 | [5] -0.001

RRP12 (UniProt Q5JTH9)
inactive: [1] -0.029 | [2] 0.021 | [3] 0.018 | [4] -0.006 | [5] 0.072

RTN3 (UniProt O95197)
inactive: [1] -0.02 | [2] -0.009 | [3] 0.019 | [4] -0.036 | [5] -0.071

RWDD2B (UniProt P57060)
inactive: [1] 0.179 | [2] -0.125 | [3] -0.042 | [4] -0.033

RPL5 (UniProt P46777)
inactive: [1] 0.021 | [2] 0.006 | [3] -0.004 | [4] -0.008 | [5] -0.008

RPTOR (UniProt Q8N122)
inactive: [1] 0.015 | [2] -0.024 | [3] 0.035 | [4] -0.008 | [5] 0.04

RPS17 (UniProt P08708)
inactive: [1] 0.008 | [2] -0.012 | [3] 0.003 | [4] 0.022 | [5] 0.061

RPUSD2 (UniProt Q8IZ73)
inactive: [1] 0.008 | [2] 0.011 | [3] 0.036 | [4] 0 | [5] -0.022

RPL36AL (UniProt Q969Q0)
inactive: [1] 0.074 | [2] -0.049 | [3] -0.03 | [4] 0.274 | [5] 0.015

RXRB isoform 3 (UniProt P28702)
inactive: [1] -0.214 | [2] -0.018 | [3] -0.151 | [4] -0.057 | [5] 0.06

2 entries drawn at random from the list so far:
RRM1 (UniProt P23921)
inactive: [1] 0.014 | [2] 0.028 | [3] 0.042 | [4] 0.028 | [5] 0.004

RRM2B isoform 6 (UniProt Q7LG56)
inactive: [1] 0.054 | [2] -0.003 | [3] -0.02 | [4] -0.009 | [5] -0.04

Continuation.

RRM2 isoform 2 (UniProt P31350)
inactive: [1] 0.088 | [2] 0.022 | [3] -0.029 | [4] 0.069 | [5] 0.044

RRP9 (UniProt O43818)
inactive: [1] -0.009 | [2] 0.02 | [3] -0.042 | [4] 0.039 | [5] -0.024

RWDD1 (UniProt Q9H446)
inactive: [1] 0.045 | [2] 0.008 | [3] 0 | [4] 0.019 | [5] -0.001
